Consider one compound from publication PMC5327911 (Clinical Pharmacology : Advances and Applications, 2017).

A word on the AUC(0-inf): it is total exposure, with the tail of the curve extrapolated. High values mean high exposure, low ones low exposure. What is called AUC(0-t) is the area under the concentration-time curve up to a stated or last time point. High values mean high exposure, low ones low exposure. As a reminder, the Cmax is the highest concentration seen after dosing. As usually defined, the Tmax is the time from dosing to the highest level.

The conditions of data set [1]: cited from earlier work.
In data set [2] the test system is P-glycoprotein (P-gp). The following applies: cited from earlier work.
The conditions of data set [3]: human, plasma, oral, 100 mg.

Take `CC(C)NCC(O)COc1ccc(CC(N)=O)cc1` (stereo not drawn) [Atenolol, atenolol]: the protein-bound in data set [1] is at most 25%. For the same compound, in data set [2], the “inhibition of P-gp-mediated transport” value is listed as “does not inhibit”. For the same compound, in data set [3], the AUC(0-inf) is 5600 ng·h/mL, the AUC(0-t) was found to be 5500 ng·h/mL, the Cmax turned out to be 603 ng/mL and the Tmax came to 3 h.
